In the supplement of paper PMC8728848:
The list shows a part of the results.

Experiments:
Assay in all cases: glycan array binding signal (z-score within array); higher = stronger binding
Conditions in all cases: glycan notation: IUPAC condensed, linker removed
Gal(a1-3)Gal = target: Gal(a1-3)Gal
How it was run: (§1)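 Negative Z-scores can be read as non-binding. The Z-score is calculated within each array and then averaged across arrays of one protein sequence at different concentrations or buffers and across linkers. Arrays, 3228 in all, were curated from the Consortium for Functional Glycomics database and kept only where the protein sequence was available.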

Gal(a1-3)Gal(b1-3)GlcNAc = target: Gal(a1-3)Gal(b1-3)GlcNAc
How it was run: as §1

[1] = target: Gal(a1-3)Gal(b1-3)GlcNAc(b1-2)Man(a1-3)[Gal(a1-3)Gal(b1-3)GlcNAc(b1-2)Man(a1-6)]Man(b1-4)GlcNAc(b1-4)GlcNAc
How it was run: as §1

[2] = target: Gal(a1-3)Gal(b1-3)GlcNAc(b1-3)GalNAc
How it was run: as §1

[3] = target: Gal(a1-3)Gal(b1-3)[Fuc(a1-4)]GlcNAc(b1-2)Man(a1-3)[Gal(a1-3)Gal(b1-3)[Fuc(a1-4)]GlcNAc(b1-2)Man(a1-6)]Man(b1-4)GlcNAc(b1-4)GlcNAc
How it was run: as §1

Gal(a1-3)Gal(b1-4)Glc = target: Gal(a1-3)Gal(b1-4)Glc
How it was run: as §1

Gal(a1-3)Gal(b1-4)GlcNAc = target: Gal(a1-3)Gal(b1-4)GlcNAc
How it was run: as §1

[4] = target: Gal(a1-3)Gal(b1-4)GlcNAc(b1-3)GalNAc
How it was run: as §1

[5] = target: Gal(a1-3)Gal(b1-4)[Fuc(a1-3)]GlcNAc
How it was run: as §1

[6] = target: Gal(a1-3)Gal(b1-4)[Fuc(a1-3)]GlcNAc(b1-2)Man(a1-3)[Gal(a1-3)Gal(b1-4)[Fuc(a1-3)]GlcNAc(b1-2)Man(a1-6)]Man(b1-4)GlcNAc(b1-4)GlcNAc
How it was run: as §1

Gal(a1-3)GalNAc = target: Gal(a1-3)GalNAc
How it was run: as §1

[7] = target: Gal(a1-3)[Gal(a1-4)]Gal(b1-4)GlcNAc
How it was run: as §1

[8] = target: Gal(a1-4)Gal(b1-3)GlcNAc(b1-2)Man(a1-3)[Gal(a1-4)Gal(b1-3)GlcNAc(b1-2)Man(a1-6)]Man(b1-4)GlcNAc(b1-4)GlcNAc
How it was run: as §1

Gal(a1-4)Gal(b1-4)Glc = target: Gal(a1-4)Gal(b1-4)Glc
How it was run: as §1

Gal(a1-4)Gal(b1-4)GlcNAc = target: Gal(a1-4)Gal(b1-4)GlcNAc
How it was run: as §1

[9] = target: Gal(a1-4)Gal(b1-4)GlcNAc(b1-2)Man(a1-3)[Gal(a1-4)Gal(b1-4)GlcNAc(b1-2)Man(a1-6)]Man(b1-4)GlcNAc(b1-4)GlcNAc
How it was run: as §1

[10] = target: Gal(a1-4)Gal(b1-4)GlcNAc(b1-3)Gal(b1-4)Glc
How it was run: as §1

Gal(a1-4)GlcNAc = target: Gal(a1-4)GlcNAc
How it was run: as §1

Gal(a1-6)Glc = target: Gal(a1-6)Glc
How it was run: as §1

Gal(b1-2)Gal = target: Gal(b1-2)Gal
How it was run: as §1

Gal(b1-3)Gal = target: Gal(b1-3)Gal
How it was run: as §1

Gal(b1-3)Gal(b1-4)GlcNAc = target: Gal(b1-3)Gal(b1-4)GlcNAc
How it was run: as §1

[11] = target: Gal(b1-3)Gal(b1-4)GlcNAc(b1-2)Man(a1-3)[Gal(b1-3)Gal(b1-4)GlcNAc(b1-2)Man(a1-6)]Man(b1-4)GlcNAc(b1-4)GlcNAc
How it was run: as §1

Gal(b1-3)GalNAc = target: Gal(b1-3)GalNAc
How it was run: as §1

[12] = target: Gal(b1-3)GalNAc(a1-3)[Fuc(a1-2)]Gal(b1-4)Glc
How it was run: as §1

[13] = target: Gal(b1-3)GalNAc(a1-3)[Fuc(a1-2)]Gal(b1-4)GlcNAc
How it was run: as §1

[14] = target: Gal(b1-3)GalNAc(b1-3)Gal(a1-4)Gal(b1-4)Glc
How it was run: as §1

[15] = target: Gal(b1-3)GalNAc(b1-4)Gal(b1-4)Glc
How it was run: as §1

[16] = target: Gal(b1-3)GalNAc(b1-4)[Neu5Ac(a2-3)]Gal(b1-4)Glc
How it was run: as §1

Gal(b1-3)GlcNAc = target: Gal(b1-3)GlcNAc
How it was run: as §1

B1: NanH (Corynebacterium diphtheriae), C6JSW6 (protein)
chain: MYSSNRTYSRAILGLSAVLTLSFTSLVAPVNAEEPETVVPATAELEGEVAATLPSAETGLLDAAPPKPVARGAAGDLQLPAVNEKEVFEEGRVIRAPEPDQSRCYRIPALVTAKNGDLLLAFDNRYGGGDGAKTWCRDAPYENMKRINRQNMQTDIQLYRSVDNGQSFEDFGYIAQGTADVRELSYTDPALVTDRTTGKIFAFFVRAYDYRVGQSSAGFNEGDVEAEIQKRDVQDTVVVESLDGGQTWGNMRLLSALTAKVSSISTGDTIFDGRGRFVTSGAGIQLQYGEHAGRLIVPISVDIDPKDSAKFINLAIYSDDHGQTWQAGIGTAGGAGFSGDVSKIVELSDGRLMMSSKDNDKPRWVSYSEDQGENWSTPKRKIIAPPQHPEKHNTGINVGLIRAYPNAPENSAAARVLLYSAPIDQRYSHKHTEDGRNNGWVMGSCDDGKTWSFGRQIEKNRFQYSSMTVMSDGNIGMVYESGDFSTGMNLKFAKFNMAWLGADCHSNEALGLTGDIDKEIVEAQEKAAEATKEAQEAAEKVQKLTEELAAARKENDELKNQVKGFKEAVGDLANEAEDLADKVFKLETAVTEAKEKATVAEKAASDAVTQLQKAESIAEEQKAKAESAAAEAQALREKLERLEGSILTVKENPEAEEIADLSSTAKDAADAARRAATDANGALSGQKQDEEKPAMGLMGILKVLAGIIPLVAIIATIFQTFRLPFNIPGMR
- glycan array binding signal (z-score) (Gal(a1-3)Gal): 1.1
- glycan array binding signal (z-score) (Gal(a1-3)Gal(b1-3)GlcNAc): 0.873
- glycan array binding signal (z-score) [1]: 1.19
- glycan array binding signal (z-score) [2]: -1.11
- glycan array binding signal (z-score) [3]: 0.712
- glycan array binding signal (z-score) (Gal(a1-3)Gal(b1-4)Glc): -0.275
- glycan array binding signal (z-score) (Gal(a1-3)Gal(b1-4)GlcNAc): 0.369
- glycan array binding signal (z-score) [4]: -0.788
- glycan array binding signal (z-score) [5]: -0.653
- glycan array binding signal (z-score) [6]: 0.405
- glycan array binding signal (z-score) (Gal(a1-3)GalNAc): -0.569
- glycan array binding signal (z-score) [7]: 0.396
- glycan array binding signal (z-score) [8]: -1.17
- glycan array binding signal (z-score) (Gal(a1-4)Gal(b1-4)Glc): -0.865
- glycan array binding signal (z-score) (Gal(a1-4)Gal(b1-4)GlcNAc): 0.209
- glycan array binding signal (z-score) [9]: -0.762
- glycan array binding signal (z-score) [10]: 0.362
- glycan array binding signal (z-score) (Gal(a1-4)GlcNAc): -0.105
- glycan array binding signal (z-score) (Gal(a1-6)Glc): -0.801
- glycan array binding signal (z-score) (Gal(b1-2)Gal): 2.93
- glycan array binding signal (z-score) (Gal(b1-3)Gal): -0.658
- glycan array binding signal (z-score) (Gal(b1-3)Gal(b1-4)GlcNAc): 0.37
- glycan array binding signal (z-score) [11]: 0.074
- glycan array binding signal (z-score) (Gal(b1-3)GalNAc): 0.582
- glycan array binding signal (z-score) [12]: 1.05
- glycan array binding signal (z-score) [13]: -0.002
- glycan array binding signal (z-score) [14]: 0.474
- glycan array binding signal (z-score) [15]: 1.25
- glycan array binding signal (z-score) [16]: -0.63
- glycan array binding signal (z-score) (Gal(b1-3)GlcNAc): -0.038
